# The entries are a selection whose mix differs from that of the whole data set.
# By UniProt entry, the sequences of proteins in these tests, tags left out. Where a name states a change or a piece, a line headed by the entry shows the natural chain unless it says otherwise.
# UniProt O95639, whole entry, looked up: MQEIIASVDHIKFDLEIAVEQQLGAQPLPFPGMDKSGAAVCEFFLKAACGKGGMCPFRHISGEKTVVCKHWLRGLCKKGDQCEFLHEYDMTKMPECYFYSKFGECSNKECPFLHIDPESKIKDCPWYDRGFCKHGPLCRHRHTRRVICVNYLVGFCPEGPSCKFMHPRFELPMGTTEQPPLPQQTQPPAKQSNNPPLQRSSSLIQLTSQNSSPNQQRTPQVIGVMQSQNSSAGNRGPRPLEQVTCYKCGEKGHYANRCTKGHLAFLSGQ
# UniProt O95373, whole entry, looked up: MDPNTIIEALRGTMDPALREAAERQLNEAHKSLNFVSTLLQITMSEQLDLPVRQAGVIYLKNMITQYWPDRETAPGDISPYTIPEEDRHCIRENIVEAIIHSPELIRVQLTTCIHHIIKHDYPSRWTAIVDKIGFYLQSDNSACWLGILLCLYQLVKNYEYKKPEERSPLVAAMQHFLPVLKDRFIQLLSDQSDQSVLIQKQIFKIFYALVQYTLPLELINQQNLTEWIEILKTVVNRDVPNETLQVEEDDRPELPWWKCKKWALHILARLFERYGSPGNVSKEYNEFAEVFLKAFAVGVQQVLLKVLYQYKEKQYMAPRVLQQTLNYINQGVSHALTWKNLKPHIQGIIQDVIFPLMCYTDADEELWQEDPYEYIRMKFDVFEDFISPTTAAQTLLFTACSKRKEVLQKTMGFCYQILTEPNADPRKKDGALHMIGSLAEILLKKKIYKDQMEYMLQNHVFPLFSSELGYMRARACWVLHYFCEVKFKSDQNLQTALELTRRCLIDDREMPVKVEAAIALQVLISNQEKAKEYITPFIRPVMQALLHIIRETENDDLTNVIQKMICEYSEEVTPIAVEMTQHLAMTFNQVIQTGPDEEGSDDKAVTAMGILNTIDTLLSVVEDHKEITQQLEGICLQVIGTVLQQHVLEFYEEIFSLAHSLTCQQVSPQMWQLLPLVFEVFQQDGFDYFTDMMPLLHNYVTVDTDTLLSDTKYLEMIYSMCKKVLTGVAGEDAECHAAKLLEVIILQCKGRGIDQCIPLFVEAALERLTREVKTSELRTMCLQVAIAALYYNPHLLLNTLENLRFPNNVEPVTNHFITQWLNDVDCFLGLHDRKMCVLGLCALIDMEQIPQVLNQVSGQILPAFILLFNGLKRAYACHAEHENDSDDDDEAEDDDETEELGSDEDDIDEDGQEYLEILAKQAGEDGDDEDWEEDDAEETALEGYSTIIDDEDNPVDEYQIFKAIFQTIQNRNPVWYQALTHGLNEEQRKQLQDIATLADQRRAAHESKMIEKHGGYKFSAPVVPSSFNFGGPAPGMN
# UniProt O95573: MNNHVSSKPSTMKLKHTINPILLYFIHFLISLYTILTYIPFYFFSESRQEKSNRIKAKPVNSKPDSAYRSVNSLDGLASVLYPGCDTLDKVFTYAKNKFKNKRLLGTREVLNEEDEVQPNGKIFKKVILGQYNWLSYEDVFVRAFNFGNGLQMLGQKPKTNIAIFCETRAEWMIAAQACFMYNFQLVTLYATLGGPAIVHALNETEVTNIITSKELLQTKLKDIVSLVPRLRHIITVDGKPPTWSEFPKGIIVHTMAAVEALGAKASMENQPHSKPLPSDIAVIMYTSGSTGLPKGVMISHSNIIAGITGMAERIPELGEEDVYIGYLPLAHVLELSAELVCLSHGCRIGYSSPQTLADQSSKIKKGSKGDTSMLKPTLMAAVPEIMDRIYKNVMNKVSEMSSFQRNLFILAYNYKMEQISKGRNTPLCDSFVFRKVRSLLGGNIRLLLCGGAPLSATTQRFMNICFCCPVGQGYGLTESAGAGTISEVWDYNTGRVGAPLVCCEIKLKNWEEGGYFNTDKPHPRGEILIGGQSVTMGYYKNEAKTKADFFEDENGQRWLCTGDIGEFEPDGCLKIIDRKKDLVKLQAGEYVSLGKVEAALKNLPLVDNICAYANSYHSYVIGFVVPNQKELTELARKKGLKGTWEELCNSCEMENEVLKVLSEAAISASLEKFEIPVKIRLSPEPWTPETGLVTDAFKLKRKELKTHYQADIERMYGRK
# UniProt P04179: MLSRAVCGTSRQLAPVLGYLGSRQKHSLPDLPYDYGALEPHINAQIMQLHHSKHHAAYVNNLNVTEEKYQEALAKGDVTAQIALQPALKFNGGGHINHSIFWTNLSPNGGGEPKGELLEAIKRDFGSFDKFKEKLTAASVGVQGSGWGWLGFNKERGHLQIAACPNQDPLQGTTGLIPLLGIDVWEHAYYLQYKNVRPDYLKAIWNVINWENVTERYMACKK
# UniProt O95613: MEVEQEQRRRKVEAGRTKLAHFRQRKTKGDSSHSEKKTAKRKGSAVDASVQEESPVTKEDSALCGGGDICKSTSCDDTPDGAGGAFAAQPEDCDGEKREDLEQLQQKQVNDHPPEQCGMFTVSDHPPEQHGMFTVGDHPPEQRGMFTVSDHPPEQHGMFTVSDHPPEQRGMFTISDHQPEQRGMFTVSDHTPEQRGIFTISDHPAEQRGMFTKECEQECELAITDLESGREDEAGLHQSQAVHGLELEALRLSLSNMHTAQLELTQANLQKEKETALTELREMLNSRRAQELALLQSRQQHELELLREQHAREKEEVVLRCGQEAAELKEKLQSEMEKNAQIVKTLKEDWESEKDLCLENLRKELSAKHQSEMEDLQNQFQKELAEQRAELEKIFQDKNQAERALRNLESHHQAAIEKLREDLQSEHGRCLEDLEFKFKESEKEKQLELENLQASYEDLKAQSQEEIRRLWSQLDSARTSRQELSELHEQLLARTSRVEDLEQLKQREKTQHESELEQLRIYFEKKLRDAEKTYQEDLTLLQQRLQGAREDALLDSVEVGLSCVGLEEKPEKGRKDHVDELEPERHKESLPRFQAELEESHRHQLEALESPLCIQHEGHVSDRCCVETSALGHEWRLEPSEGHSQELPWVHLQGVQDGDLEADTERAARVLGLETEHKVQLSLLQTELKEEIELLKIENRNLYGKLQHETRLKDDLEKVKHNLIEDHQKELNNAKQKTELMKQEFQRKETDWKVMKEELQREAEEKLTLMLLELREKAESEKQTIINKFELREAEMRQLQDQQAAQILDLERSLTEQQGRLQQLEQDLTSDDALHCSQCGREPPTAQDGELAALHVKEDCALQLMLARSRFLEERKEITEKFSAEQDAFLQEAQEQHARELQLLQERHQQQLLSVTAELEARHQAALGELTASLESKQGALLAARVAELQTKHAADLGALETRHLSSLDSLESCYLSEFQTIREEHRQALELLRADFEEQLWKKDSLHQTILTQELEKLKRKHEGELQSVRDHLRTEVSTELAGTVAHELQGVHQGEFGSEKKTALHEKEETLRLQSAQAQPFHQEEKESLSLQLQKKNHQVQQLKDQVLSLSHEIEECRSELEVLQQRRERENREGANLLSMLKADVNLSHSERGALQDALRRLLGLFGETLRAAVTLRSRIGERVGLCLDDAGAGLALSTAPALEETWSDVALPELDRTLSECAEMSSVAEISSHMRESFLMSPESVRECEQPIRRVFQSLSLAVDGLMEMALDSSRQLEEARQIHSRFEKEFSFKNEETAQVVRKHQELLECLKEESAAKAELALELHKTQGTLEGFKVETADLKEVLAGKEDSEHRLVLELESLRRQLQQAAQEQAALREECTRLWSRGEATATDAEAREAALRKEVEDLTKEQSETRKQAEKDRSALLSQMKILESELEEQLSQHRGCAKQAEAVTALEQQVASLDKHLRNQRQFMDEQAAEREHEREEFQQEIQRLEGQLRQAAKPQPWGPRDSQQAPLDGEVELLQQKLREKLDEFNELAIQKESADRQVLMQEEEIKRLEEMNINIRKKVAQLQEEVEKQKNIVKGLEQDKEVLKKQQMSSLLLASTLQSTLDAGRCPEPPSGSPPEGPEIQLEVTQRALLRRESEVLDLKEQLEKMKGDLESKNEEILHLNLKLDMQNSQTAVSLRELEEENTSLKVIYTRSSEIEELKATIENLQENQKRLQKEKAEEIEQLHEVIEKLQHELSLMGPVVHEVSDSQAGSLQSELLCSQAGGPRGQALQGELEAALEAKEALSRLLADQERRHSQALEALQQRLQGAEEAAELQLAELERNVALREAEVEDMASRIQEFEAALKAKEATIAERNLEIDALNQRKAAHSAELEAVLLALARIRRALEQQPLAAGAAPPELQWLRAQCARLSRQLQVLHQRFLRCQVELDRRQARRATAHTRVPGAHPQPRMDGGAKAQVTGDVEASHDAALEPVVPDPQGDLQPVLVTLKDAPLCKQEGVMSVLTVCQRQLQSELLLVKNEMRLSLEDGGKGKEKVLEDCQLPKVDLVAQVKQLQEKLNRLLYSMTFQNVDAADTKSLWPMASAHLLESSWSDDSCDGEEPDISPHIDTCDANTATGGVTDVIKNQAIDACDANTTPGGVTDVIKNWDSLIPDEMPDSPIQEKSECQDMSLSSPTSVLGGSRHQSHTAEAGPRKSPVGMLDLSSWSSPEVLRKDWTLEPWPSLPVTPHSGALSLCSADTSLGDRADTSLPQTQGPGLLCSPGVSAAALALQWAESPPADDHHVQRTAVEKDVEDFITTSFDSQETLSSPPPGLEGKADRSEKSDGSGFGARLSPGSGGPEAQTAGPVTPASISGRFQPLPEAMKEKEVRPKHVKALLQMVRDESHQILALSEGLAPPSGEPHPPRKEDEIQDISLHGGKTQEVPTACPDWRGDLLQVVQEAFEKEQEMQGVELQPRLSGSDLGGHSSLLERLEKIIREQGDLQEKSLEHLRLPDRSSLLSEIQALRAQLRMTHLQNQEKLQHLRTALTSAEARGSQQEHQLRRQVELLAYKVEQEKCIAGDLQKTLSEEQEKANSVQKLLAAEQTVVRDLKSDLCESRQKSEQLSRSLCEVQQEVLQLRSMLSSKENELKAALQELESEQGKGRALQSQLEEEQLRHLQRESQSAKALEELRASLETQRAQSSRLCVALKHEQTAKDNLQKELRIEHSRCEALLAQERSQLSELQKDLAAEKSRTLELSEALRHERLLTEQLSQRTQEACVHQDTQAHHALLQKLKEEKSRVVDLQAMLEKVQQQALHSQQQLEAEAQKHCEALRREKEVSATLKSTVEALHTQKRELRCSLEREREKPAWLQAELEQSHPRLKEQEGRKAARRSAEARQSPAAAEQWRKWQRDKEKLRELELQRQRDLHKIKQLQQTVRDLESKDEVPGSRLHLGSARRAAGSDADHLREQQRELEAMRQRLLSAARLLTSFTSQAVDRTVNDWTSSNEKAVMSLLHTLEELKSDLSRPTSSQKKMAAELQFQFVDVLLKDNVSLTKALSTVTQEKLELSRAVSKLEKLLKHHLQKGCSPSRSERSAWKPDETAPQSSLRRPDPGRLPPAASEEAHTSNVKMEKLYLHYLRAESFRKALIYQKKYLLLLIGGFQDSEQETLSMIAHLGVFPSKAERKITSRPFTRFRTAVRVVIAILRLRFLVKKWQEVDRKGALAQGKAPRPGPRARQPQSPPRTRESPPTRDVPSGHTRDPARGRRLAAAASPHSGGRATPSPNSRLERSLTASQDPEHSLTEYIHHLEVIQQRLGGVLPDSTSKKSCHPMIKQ
# UniProt O94804: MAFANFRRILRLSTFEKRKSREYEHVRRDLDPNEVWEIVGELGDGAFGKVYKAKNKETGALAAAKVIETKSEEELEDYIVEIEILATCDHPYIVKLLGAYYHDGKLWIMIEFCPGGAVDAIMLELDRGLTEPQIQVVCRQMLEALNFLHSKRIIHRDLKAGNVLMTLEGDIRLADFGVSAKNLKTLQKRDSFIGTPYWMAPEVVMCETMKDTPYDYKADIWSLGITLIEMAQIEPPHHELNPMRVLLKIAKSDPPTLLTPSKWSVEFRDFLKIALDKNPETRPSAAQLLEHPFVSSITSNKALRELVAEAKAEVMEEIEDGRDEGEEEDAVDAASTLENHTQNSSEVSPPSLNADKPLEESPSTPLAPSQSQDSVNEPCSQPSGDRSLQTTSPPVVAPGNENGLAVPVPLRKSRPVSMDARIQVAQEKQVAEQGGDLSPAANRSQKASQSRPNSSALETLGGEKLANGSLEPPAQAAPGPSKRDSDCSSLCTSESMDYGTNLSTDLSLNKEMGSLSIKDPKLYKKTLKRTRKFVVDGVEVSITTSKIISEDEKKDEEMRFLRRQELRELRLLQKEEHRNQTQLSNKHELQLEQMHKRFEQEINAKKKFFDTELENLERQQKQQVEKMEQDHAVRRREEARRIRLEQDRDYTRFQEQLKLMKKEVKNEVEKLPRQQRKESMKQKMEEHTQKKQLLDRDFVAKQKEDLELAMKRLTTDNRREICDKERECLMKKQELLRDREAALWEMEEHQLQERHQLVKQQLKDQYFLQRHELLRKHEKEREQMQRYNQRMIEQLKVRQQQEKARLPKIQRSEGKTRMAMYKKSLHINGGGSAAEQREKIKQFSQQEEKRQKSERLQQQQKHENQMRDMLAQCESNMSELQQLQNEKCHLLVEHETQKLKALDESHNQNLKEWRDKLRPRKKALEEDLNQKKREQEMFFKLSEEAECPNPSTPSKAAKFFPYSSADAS
# Compound: COC(=O)C#Cc1ccccc1 [methyl 3-phenylpropiolate]
# Experiment: log2 ratio of iodoacetamide-alkyne labeling of the cysteine site, DMSO over compound (competition); higher = stronger covalent engagement of the cysteine by the compound, active = 1 or more
# Conditions: 500 µM; treatment time 1 h; system: HEK293T cell lysate
# How it was run: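 Electrophile (500 µM) or vehicle was added to HEK293T lysate (2 mg/mL) for 1 h at ambient temperature before iodoacetamide alkyne labelling (1 h) and click coupling to sCIP-TMT reagents. After pooling, overnight trypsin digestion at 37 °C, streptavidin enrichment and acid elution, peptides were measured by Orbitrap Eclipse LC-MS/MS with FAIMS and quantified in FragPipe. Each cysteine's log2 competition ratio compares mean control-channel with mean compound-channel reporter intensity, control over compound. Data came from duplicate channels across three replicates, excluding cysteines quantified in only one replicate.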
row,Target,log2 ratio of iodoacetamide-alkyne labeling
1,POLR1A C446 (UniProt O95602),inactive: 0.0221
2,CPSF4 C41 (UniProt O95639),inactive: 0.426
3,SASH1 C406 (UniProt O94885),active: 1.19
4,HEXIM1 C84 (UniProt O94992),active: 1.3
5,AIFM1 C441 (UniProt O95831),inactive: 0.0687
6,ALDOA C290 (UniProt P04075),inactive: -0.0495
7,IPO7 C415 (UniProt O95373),inactive: -0.0165
8,MYO1D C143 (UniProt O94832),inactive: 0.254
9,PCF11 C1534 (UniProt O94913),inactive: 0.259
10,SVIL C178 (UniProt O95425),inactive: 0.364
11,PRPF6 C837 (UniProt O94906),inactive: -0.091
12,ACSL3 C652 (UniProt O95573),inactive: -0.112
13,PRPF6 C558 (UniProt O94906),inactive: 0.0878
14,SOD2 C164 (UniProt P04179),inactive: -0.0962
15,IPO7 C90 (UniProt O95373),inactive: 0.213
16,PCNT C2150 (UniProt O95613),inactive: 0.075
17,UniProt P04350_C12,inactive: 0.496
18,GLS C266 (UniProt O94925),inactive: -0.0523
19,ATP1A1 C428 (UniProt P05023),inactive: 0.234

row,Target,log2 ratio of iodoacetamide-alkyne labeling
1,HPRT1 C23 (UniProt P00492),inactive: 0.0449
2,UniProt P00491_C206,inactive: 0.134
3,GLS C203 (UniProt O94925),inactive: 0.391
4,HSPA4L C421 (UniProt O95757),inactive: -0.0563
5,UniProt O94813_C907,inactive: 0.637
6,MTA2 C495 (UniProt O94776),inactive: -0.0134
7,WIZ C1429 (UniProt O95785),inactive: 0.218
8,BPNT1 C206 (UniProt O95861),inactive: 0.27
9,UniProt O94804_C947,inactive: 0.487
10,HEXB C551 (UniProt P07686),inactive: 0.749
11,LDHB C294 (UniProt P07195),inactive: -0.0731
12,UniProt O94953_C971,inactive: 0.337
13,ZBED1 C76 (UniProt O96006),inactive: 0.438
14,ZWINT C54 (UniProt O95229),inactive: 0.427
15,SMC2 C585 (UniProt O95347),inactive: 0.258
16,PGK1 C50 (UniProt P00558),inactive: 0.0293
17,BCL10 C119 (UniProt O95999),inactive: 0.992
18,FGFR1OP C244 (UniProt O95684),inactive: 0.0665

# 3 records picked at random from those above:
row,Target,log2 ratio of iodoacetamide-alkyne labeling
5,UniProt O94813_C907,inactive: 0.637
10,SVIL C178 (UniProt O95425),inactive: 0.364
7,WIZ C1429 (UniProt O95785),inactive: 0.218

# From the supplement of paper PMC11006884
